From publication PMC8121856
Results are given in words; binding and its absence hold for the method and conditions named. Binding seen in cells or lysates may run through a third protein. These calls come from enrichment with a bait or labelling near it, and not all partners need be listed. Tags and fused reporters may be left off the sequences shown.

The chains behind the UniProt entries cited, without tags or fusion partners. Residues count along the entry.
UniProt P29317, residues 24-976: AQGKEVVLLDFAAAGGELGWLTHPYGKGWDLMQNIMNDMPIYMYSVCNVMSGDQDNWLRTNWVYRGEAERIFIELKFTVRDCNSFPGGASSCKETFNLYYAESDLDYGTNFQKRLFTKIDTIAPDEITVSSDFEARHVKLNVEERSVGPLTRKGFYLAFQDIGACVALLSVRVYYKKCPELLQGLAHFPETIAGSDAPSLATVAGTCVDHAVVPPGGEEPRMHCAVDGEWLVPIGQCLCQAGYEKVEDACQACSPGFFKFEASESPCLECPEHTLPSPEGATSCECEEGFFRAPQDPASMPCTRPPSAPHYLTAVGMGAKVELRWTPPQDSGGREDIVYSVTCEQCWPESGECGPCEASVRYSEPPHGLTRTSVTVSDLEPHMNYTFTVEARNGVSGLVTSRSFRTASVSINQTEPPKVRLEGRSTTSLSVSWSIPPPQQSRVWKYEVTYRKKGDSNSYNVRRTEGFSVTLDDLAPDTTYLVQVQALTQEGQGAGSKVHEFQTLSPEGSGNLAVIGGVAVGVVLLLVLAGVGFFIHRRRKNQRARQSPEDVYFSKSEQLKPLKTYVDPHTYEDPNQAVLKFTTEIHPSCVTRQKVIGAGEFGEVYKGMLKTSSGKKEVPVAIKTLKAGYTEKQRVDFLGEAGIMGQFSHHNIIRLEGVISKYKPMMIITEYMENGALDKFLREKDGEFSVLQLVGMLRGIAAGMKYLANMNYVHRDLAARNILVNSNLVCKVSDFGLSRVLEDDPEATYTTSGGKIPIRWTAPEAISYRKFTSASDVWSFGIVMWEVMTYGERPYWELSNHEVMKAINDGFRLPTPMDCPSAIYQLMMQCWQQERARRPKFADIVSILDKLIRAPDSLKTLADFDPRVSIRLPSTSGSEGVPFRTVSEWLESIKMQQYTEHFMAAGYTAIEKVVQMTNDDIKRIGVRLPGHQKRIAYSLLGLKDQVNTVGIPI
UniProt P21860, residues 20-1342: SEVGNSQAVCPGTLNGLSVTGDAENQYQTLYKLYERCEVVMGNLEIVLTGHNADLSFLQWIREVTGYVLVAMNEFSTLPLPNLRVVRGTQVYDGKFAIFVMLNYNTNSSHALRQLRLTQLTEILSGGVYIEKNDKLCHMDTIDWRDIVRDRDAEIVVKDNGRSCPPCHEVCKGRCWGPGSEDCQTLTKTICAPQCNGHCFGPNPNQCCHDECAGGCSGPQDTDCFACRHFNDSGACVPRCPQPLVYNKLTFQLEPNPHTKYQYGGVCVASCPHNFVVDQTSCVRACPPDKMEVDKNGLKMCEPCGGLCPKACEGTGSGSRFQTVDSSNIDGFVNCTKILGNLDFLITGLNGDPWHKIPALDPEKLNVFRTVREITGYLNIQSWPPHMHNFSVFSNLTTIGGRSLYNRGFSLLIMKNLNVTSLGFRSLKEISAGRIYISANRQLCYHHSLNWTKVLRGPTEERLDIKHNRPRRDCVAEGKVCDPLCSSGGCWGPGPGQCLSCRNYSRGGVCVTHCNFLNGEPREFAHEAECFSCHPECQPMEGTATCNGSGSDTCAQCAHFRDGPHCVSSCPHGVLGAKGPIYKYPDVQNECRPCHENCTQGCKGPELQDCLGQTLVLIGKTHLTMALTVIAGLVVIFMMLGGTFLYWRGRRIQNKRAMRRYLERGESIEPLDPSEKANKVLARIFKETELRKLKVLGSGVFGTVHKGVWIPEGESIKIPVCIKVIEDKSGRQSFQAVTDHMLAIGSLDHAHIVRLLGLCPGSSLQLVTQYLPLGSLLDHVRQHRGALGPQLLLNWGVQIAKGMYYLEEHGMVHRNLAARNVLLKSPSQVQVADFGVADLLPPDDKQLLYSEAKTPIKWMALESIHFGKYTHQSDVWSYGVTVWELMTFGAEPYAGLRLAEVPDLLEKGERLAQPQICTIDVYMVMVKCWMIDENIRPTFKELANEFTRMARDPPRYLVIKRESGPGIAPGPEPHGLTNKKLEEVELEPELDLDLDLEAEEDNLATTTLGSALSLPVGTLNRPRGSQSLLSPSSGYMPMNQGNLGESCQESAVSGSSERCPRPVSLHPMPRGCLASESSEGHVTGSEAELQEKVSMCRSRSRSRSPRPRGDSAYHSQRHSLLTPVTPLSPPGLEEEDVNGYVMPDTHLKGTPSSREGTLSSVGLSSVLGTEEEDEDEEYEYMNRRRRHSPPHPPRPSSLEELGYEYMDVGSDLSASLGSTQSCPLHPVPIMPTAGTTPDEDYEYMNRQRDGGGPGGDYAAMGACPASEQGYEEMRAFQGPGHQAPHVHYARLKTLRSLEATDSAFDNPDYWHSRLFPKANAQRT

Molecular target: T1, Flag-tagged Shc1 (UniProt P29353)
T1 sequence: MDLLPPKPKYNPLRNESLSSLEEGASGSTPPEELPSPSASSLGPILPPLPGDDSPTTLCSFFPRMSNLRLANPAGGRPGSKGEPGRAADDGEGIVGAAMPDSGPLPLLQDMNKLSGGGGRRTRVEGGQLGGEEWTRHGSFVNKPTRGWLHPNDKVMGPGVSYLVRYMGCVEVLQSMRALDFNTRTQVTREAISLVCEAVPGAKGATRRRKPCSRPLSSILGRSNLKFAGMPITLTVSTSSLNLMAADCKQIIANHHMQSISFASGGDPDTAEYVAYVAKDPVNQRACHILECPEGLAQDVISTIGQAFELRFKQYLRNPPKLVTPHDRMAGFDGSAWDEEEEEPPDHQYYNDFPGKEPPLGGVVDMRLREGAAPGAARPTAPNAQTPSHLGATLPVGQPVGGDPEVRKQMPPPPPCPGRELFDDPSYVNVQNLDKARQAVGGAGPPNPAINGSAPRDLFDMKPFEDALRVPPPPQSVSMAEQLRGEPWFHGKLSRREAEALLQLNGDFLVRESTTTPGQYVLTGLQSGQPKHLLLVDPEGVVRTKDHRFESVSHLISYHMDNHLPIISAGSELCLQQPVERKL
Assay: affinity purification with mass spectrometry; Flag-Shc1 immunoprecipitated on anti-Flag M2 agarose from SNU-216 stable cells following EGF stimulation; lysis buffer 50 mM Tris-HCl pH 7.4, 150 mM NaCl, 1 mM EDTA, 0.2% TritonX-100; LC-MS/MS

“EPHA2 (from UniProt P29317 24-976) (receptor)” was tested. Which binding did it give?
The binding was “binds”.

With “HER3 (from UniProt P21860 20-1342) (receptor)” as the molecule, how does the binding read?
Its binding is “binds”.

Which binding does the source give for “Human epidermal growth factor receptor 2 (HER2) (from UniProt P04626 23-1255)” here?
The binding was “binds”.

B1: JUP (protein, UniProt P14923 1-745)
chain: MEVMNLMEQPIKVTEWQQTYTYDSGIHSGANTCVPSVSSKGIMEEDEACGRQYTLKKTTTYTQGVPPSQGDLEYQMSTTARAKRVREAMCPGVSGEDSSLLLATQVEGQATNLQRLAEPSQLLKSAIVHLINYQDDAELATRALPELTKLLNDEDPVVVTKAAMIVNQLSKKEASRRALMGSPQLVAAVVRTMQNTSDLDTARCTTSILHNLSHHREGLLAIFKSGGIPALVRMLSSPVESVLFYAITTLHNLLLYQEGAKMAVRLADGLQKMVPLLNKNNPKFLAITTDCLQLLAYGNQESKLIILANGGPQALVQIMRNYSYEKLLWTTSRVLKVLSVCPSNKPAIVEAGGMQALGKHLTSNSPRLVQNCLWTLRNLSDVATKQEGLESVLKILVNQLSVDDVNVLTCATGTLSNLTCNNSKNKTLVTQNSGVEALIHAILRAGDKDDITEPAVCALRHLTSRHPEAEMAQNSVRLNYGIPAIVKLLNQPNQWPLVKATIGLIRNLALCPANHAPLQEAAVIPRLVQLLVKAHQDAQRHVAAGTQQPYTDGVRMEEIVEGCTGALHILARDPMNRMEIFRLNTIPLFVQLLYSSVENIQRVAAGVLCELAQDKEAADAIDAEGASAPLMELLHSRNEGTATYAAAVLFRISEDKNPDYRKRVSVELTNSLFKHDPAAWEAAQSMIPINEPYGDDMDATYRPMYSSDVPLDPLEMHMDMDGDYPIDTYSDGLRPPYPTADHMLA
For B1, which binding is on record?
The binding was “binds”.

B2: SHCBP1 (endogenous, SNU-216) (protein, UniProt Q8NEM2 1-672)
chain: MADGSLTGGGLEAAAMAPERMGWAVEQELASLEKGLFQDEDSCSDCSYRDKPGSSLQSFMPEGKTFFPEIFQTNQLLFYERFRAYQDYILADCKASEVQEFTAEFLEKVLEPSGWRAVWHTNVFKVLVEITDVDFAALKAVVRLAEPYLCDSQVSTFTMECMKELLDLKEHRLPLQELWVVFDDSGVFDQTALAIEHVRFFYQNIWRSWDEEEEDEYDYFVRCVEPRLRLHYDILEDRVPSGLIVDYHNLLSQCEESYRKFLNLRSSLSNCNSDSEQENISMVEGLKLYSEMEQLKQKLKLIENPLLRYVFGYQKNSNIQAKGVRSSGQKITHVVSSTMMAGLLRSLLTDRLCQEPGEEEREIQFHSDPLSAINACFEGDTVIVCPGHYVVHGTFSIADSIELEGYGLPDDIVIEKRGKGDTFVDCTGADIKISGIKFVQHDAVEGILIVHRGKTTLENCVLQCETTGVTVRTSAEFLMKNSDLYGAKGAGIEIYPGSQCTLSDNGIHHCKEGILIKDFLDEHYDIPKISMVNNIIHNNEGYGVVLVKPTIFSDLQENAEDGTEENKALKIQTSGEPDVAERVDLEELIECATGKMELCARTDPSEQVEGNCEIVNELIAASTQKGQIKKKRLSELGITQADDNLMSQEMFVGIVGNQFKWNGKGSFGTFLF
For B2, which binding is on record?
Its binding is “binds”.

B3: RASAL2 (protein, UniProt Q9UJF2 1-1139)
chain: MQTPEVPAERSPRRRSISGTSTSEKPNSMDTANTSPFKVPGFFSKRLKGSIKRTKSQSKLDRNTSFRLPSLRSTDDRSRGLPKLKESRSHESLLSPCSTVECLDLGRGEPVSVKPLHSSILGQDFCFEVTYLSGSKCFSCNSASERDKWMENLRRTVQPNKDNCRRAENVLRLWIIEAKDLAPKKKYFCELCLDDTLFARTTSKTKADNIFWGEHFEFFSLPPLHSITVHIYKDVEKKKKKDKNNYVGLVNIPTASVTGRQFVEKWYPVSTPTPNKGKTGGPSIRIKSRFQTITILPMEQYKEFAEFVTSNYTMLCSVLEPVISVRNKEELACALVHILQSTGRAKDFLTDLVMSEVDRCGEHDVLIFRENTIATKSIEEYLKLVGQQYLHDALGEFIKALYESDENCEVDPSKCSSSELIDHQSNLKMCCELAFCKIINSYCVFPRELKEVFASWKQQCLNRGKQDISERLISASLFLRFLCPAIMSPSLFNLMQEYPDDRTSRTLTLIAKVIQNLANFAKFGNKEEYMAFMNDFLEHEWGGMKRFLLEISNPDTISNTPGFDGYIDLGRELSVLHSLLWEVVSQLDKGENSFLQATVAKLGPLPRVLADITKSLTNPTPIQQQLRRFTEHNSSPNVSGSLSSGLQKIFEDPTDSDLHKLKSPSQDNTDSYFRGKTLLLVQQASSQSMTYSEKDERESSLPNGRSVSLMDLQDTHAAQVEHASVMLDVPIRLTGSQLSITQVASIKQLRETQSTPQSAPQVRRPLHPALNQPGGLQPLSFQNPVYHLNNPIPAMPKASIDSSLENLSTASSRSQSNSEDFKLSGPSNSSMEDFTKRSTQSEDFSRRHTVPDRHIPLALPRQNSTGQAQIRKVDQGGLGARAKAPPSLPHSASLRSTGSMSVVSAALVAEPVQNGSRSRQQSSSSRESPVPKVRAIQRQQTQQVQSPVDSATMSPVERTAAWVLNNGQYEEDVEETEQNLDEAKHAEKYEQEITKLKERLRVSSRRLEEYERRLLVQEQQMQKLLLEYKARLEDSEERLRRQQEEKDSQMKSIISRLMAVEEELKKDHAEMQAVIDAKQKIIDAQEKRIVSLDSANTRLMSALTQVKERYSMQVRNGISPTNPTKLSITENGEFKNSSC
How did the binding turn out when B3 was run?
Its binding is “binds”.
